These are yes or no findings as the source states them, for the method shown. In cells and extracts the contact can be indirect. Some results given as binding are weak or reduced against the parent protein; the word gives no strength. Values belong to the molecule of their own block, whether it stands above or below them.
Assays:
[1] = target: T1, NOXO1, human (human (endogenous in HUVEC and DLD1)) (UniProt Q8NFA2); assay: co-IP; endogenous proteins in whole lysates of human cells (HUVEC, DLD1); NP-40 lysis buffer with protease and phosphatase inhibitors; primary antibody overnight at 4 °C, protein G magnetic beads 2 h at 4 °C, three washes; Western blot
T1 sequence: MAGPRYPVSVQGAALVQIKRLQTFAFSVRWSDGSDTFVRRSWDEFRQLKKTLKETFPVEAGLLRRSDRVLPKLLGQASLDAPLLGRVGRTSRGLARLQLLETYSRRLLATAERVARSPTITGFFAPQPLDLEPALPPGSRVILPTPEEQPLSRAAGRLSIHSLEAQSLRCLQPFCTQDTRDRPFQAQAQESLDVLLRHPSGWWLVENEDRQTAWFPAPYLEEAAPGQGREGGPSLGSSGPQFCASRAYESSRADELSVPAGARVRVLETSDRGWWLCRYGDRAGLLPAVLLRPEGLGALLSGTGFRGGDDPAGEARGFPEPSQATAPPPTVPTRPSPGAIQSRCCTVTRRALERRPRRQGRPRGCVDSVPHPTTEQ

Protein sequences, listed by entry. Tags and fused reporters are not part of them.
UniProt Q9Y5S8: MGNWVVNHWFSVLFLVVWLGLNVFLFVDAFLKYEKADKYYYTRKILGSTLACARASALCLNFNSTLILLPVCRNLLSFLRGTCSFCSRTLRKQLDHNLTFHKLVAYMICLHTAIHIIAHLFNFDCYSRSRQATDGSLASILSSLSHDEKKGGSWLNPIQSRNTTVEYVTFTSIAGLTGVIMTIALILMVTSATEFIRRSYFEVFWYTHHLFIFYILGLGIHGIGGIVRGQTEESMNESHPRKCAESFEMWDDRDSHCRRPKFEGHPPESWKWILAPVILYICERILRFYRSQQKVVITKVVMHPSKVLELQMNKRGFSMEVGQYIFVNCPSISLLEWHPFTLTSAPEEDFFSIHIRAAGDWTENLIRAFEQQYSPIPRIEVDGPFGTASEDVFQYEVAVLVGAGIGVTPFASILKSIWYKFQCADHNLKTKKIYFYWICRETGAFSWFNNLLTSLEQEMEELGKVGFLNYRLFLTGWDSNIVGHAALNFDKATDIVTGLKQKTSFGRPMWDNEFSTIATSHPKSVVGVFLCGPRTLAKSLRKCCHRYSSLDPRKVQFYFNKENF
UniProt Q8CIZ9: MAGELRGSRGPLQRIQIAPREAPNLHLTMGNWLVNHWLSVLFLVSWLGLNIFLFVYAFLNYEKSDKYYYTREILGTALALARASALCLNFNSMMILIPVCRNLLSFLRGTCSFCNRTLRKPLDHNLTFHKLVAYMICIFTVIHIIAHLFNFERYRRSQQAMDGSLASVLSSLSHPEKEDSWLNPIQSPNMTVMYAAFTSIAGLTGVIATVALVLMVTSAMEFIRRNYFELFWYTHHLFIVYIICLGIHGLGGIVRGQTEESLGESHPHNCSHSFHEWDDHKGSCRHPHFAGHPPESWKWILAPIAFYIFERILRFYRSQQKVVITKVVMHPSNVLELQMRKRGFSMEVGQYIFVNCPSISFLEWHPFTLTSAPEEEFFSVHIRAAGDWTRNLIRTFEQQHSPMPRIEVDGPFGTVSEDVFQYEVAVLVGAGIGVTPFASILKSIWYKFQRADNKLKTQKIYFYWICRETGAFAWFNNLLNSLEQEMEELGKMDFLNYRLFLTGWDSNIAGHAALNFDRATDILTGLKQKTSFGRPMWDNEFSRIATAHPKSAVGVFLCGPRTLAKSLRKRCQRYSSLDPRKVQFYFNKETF

[2] = target: T2, membrane melanoma cell adhesion molecule (MCAM), human (human (endogenous in HUVEC and DLD1)) (UniProt P43121); assay: as above
T2 sequence: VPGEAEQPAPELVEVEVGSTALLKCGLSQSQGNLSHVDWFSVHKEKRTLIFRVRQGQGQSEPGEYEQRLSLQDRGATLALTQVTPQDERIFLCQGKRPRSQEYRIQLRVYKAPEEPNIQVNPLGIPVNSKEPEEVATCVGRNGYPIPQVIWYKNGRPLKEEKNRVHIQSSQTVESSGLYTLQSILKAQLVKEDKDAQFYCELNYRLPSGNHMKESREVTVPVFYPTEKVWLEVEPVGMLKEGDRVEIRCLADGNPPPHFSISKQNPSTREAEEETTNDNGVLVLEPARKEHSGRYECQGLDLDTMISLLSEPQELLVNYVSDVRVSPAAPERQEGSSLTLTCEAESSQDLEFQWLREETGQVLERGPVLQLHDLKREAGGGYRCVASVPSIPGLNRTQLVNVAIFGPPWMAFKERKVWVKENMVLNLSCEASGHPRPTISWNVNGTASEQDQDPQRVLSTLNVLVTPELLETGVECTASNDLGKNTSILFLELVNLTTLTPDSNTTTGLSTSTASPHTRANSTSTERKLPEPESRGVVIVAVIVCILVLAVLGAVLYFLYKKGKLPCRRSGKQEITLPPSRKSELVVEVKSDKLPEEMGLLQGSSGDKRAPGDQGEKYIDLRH

[3] = target: T3, membrane melanoma cell adhesion molecule (MCAM), mouse (mouse (endogenous in MC38 and B16F10)) (UniProt Q8R2Y2); assay: co-IP; endogenous proteins in whole lysates of mouse cancer cells (MC38, B16F10); NP-40 lysis buffer with protease and phosphatase inhibitors; primary antibody overnight at 4 °C, protein G magnetic beads 2 h at 4 °C, three washes; Western blot
T3 sequence: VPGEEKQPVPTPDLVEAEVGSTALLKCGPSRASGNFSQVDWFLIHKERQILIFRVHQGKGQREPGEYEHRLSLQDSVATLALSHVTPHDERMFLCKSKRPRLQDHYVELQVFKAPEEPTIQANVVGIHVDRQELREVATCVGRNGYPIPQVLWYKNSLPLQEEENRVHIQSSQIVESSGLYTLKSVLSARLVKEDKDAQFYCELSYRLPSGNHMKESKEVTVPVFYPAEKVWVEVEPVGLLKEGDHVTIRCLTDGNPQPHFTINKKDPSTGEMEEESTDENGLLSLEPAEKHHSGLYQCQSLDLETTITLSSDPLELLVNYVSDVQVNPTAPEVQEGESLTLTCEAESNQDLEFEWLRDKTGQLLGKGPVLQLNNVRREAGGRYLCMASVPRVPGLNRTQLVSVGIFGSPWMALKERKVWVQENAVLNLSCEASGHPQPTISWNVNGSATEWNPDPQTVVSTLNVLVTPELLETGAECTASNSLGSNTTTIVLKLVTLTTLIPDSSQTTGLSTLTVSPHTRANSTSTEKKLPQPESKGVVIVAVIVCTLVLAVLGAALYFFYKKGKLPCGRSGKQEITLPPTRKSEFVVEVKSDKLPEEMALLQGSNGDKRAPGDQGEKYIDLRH

[4] = target: NOX1, human (human (endogenous in HUVEC and DLD1)) (UniProt Q9Y5S8); assay: co-IP; endogenous proteins in whole lysates of human cells (HUVEC, DLD1); NP-40 lysis buffer with protease and phosphatase inhibitors; primary antibody overnight at 4 °C, protein G magnetic beads 2 h at 4 °C, three washes; Western blot
[5] = target: NOX1, mouse (mouse (endogenous in MC38 and B16F10)) (UniProt Q8CIZ9); assay: co-IP; endogenous proteins in whole lysates of mouse cancer cells (MC38, B16F10); NP-40 lysis buffer with protease and phosphatase inhibitors; primary antibody overnight at 4 °C, protein G magnetic beads 2 h at 4 °C, three washes; Western blot

binding [1]: binds | binding [2]: binds
Molecule: NOX1, human (from UniProt Q9Y5S8 1-564) (enzyme)

binding [3]: binds
Molecule: NOX1, mouse (from UniProt Q8CIZ9 1-591) (enzyme)

binding [4]: binds | binding [1]: binds
Molecule: membrane melanoma cell adhesion molecule (MCAM), human (from UniProt P43121 24-646)

binding [5]: binds
B1: membrane melanoma cell adhesion molecule (MCAM), mouse (protein, UniProt Q8R2Y2 24-648)
chain: T3 sequence

Reference: paper PMC10740863
